{"source": "patent EP4803630A1", "about": "“CELL FOR IDENTIFYING MAIT CELL LIGAND, AND METHOD FOR SCREENING MAIT CELL LIGAND USING SAID CELL” (The University of Osaka, priority 2023, dated 2025)", "key": {"TCR of MAIT cells": {"tested_on": "TCR of MAIT cells", "experiment": "co-expression reporter cell assay: NFAT-GFP expression on activation of MAIT TCR", "assay_type": "cell-based", "conditions": "37°C, 6-20 hr, GFP by flow cytometry", "excerpt": "MAIT TCR genes and MR1 molecules genes were synthesized from mouse (Tiloy et al, J Exp Med. 1999) or human (4L4T, Protein Data Bank) and inserted into retroviral vectors (pMX-IRES-ratCD2, pMX-IRES-humanCD8), respectively. These plasmids were co-introduced into Phoenix packaging cells by using PEI MAX (Polysciences). […] MAIT TCR and MR1 co-expressing T cells (hereinafter also referred to as \"co-expression reporter cells\") were selected using antimouse TCRβ (H57-597), anti-human CD3 (HIT3a), and anti-human/mouse/rat MR1 (26.5) antibodies.\n(§1) The validation experiment evaluated GFP expression and MR1 molecule surface expression 6 hr after stimulation of co-expression reporter cells with vehicle control, 5-OP-RU, and Ac-6-FP. GFP was evaluated by flow cytometry. MR1 molecule surface expression was represented by the MFI value of the stimulated cells.\n(§2) In the above-mentioned screening, to stimulate \"co-expression reporter cells,\" tissue extract samples and synthetic compounds were dissolved in water and added to each well of a 96-well plate in the absence of methylglyoxal. Some water-insoluble samples were dissolved in ethanol or chloroform/methanol (2:1, vol/vol) and coated onto the plates. \"Co-expression reporter cells\" (1-3×10^4 cells/100 µL/well) were cultured at 37°C for 6-20 hr, and the expression of GFP and MR1 molecules was analyzed by flow cytometry."}, "MR1 molecule": {"tested_on": "MR1 molecule", "experiment": "co-expression reporter cell assay: MR1 surface expression by flow cytometry", "assay_type": "cell-based", "conditions": "co-expression reporter cells, 37°C, 6-20 hr, MFI by flow cytometry", "method": "These plasmids were co-introduced into Phoenix packaging cells by using PEI MAX (Polysciences).\nas §1, §2"}}, "note": "For at least one compound, name, drawing or mass did not settle the structure.", "data": [{"smiles": "CC(=O)Nc1nc2ncc(C=O)nc2c(=O)[nH]1", "note": "[Ac-6-FP, acetyl-6-formylpterin, reference compound]", "values": [{"measurement": "activation of the TCR of MAIT cells (GFP expression)", "setting": "TCR of MAIT cells", "result": "without enhancing GFP expression"}, {"measurement": "expression of MR1 molecules on the T cell surface", "setting": "MR1 molecule", "result": "strongly increased MR1 molecule expression on the T cell surface"}]}]}
